PubChem BioAssay AID743454 | Peter MacCallum Cancer Centre, 2014
The deposit covers about 18,000 reagents; shown is a random part of them. 450 of them (2.5%) count as active. 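Single biological run; no consistent viability z cut-off exists, so the class columns, not z-scores, define the calls.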 Unmarked entries are inactive. Reagents against one gene are numbered here.

- Assay: 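Knock-downs lowering viability or raising caspase 3/7 activity in vorinostat-treated resistant cells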 (primary screen)
- System: human HCT116-VR colon cancer cells, selected for vorinostat resistance
- Knock-down reagent: siRNA pool against human genes, 40 nM siRNA pool
- Time to read-out: vorinostat for 24 h, read-out about 72 h after transfection
- Conditions: vorinostat at 2.5 µM final
- Measured: 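Two measures, CellTiter-Fluor viability and luminescent caspase 3/7 activity, each as fold change against same-plate mock wells, mean of duplicates, then screen-wide robust z-score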
- Scale: viability robust z-score: higher = more viable cells than screen typical; caspase robust z-score: higher = more caspase 3/7 activity than screen typical
- Call rule: 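a knock-down is a hit when classed RV1 or RV2 for lowered viability, or CA1 or CA2 for caspase activation; those lethal without drug were dropped; hits were retested singly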

target | reagent | viability hit class | caspase hit class | viability robust z-score | caspase robust z-score
ARPC2 (actin related protein 2/3 complex subunit 2) | 1 | no change | no change | 0.02 | -0.31
PM20D2 (peptidase M20 domain containing 2) | 1 | no change | no change | -0.46 | -0.46
ZNF462 (zinc finger protein 462) | 1 | no change | no change | -2 | 0.28
GNAT1 (G protein subunit alpha transducin 1) | 1 | no change | no change | -0.78 | -0.43
ZNF606 (zinc finger protein 606) | 1 | no change | no change | -1.34 | 3.22
NR2C2AP (nuclear receptor 2C2 associated protein) | 1 | no change | no change | 0.37 | -0.1
LORICRIN (loricrin cornified envelope precursor protein) | 1 | no change | no change | -0.17 | -0.46
DCTPP1 (dCTP pyrophosphatase 1) | 1 | no change | no change | -0.11 | -0.53
OR5B17 (olfactory receptor family 5 subfamily B member 17) | 1 | no change | no change | -0.6 | -0.08
PKP2 (plakophilin 2) | 1 | no change | no change | -0.05 | 0.05
GATAD1 (GATA zinc finger domain containing 1) | 1 | no change | no change | -1.57 | 2.02
CIB2 (calcium and integrin binding family member 2) | 1 | no change | no change | -0.84 | -0.36
CABP5 (calcium binding protein 5) | 1 | no change (active) | CA2 (caspase activation) | -2.38 | 6.07
MESP2 (mesoderm posterior bHLH transcription factor 2) | 1 | no change | no change | -1.22 | 1
PDPN (podoplanin) | 1 | no change | no change | 1.36 | 0.42
ZFHX4 (zinc finger homeobox 4) | 1 | no change | no change | 0.22 | -1.16
ASPHD1 (aspartate beta-hydroxylase domain containing 1) | 1 | no change | no change | -0.2 | -0.59
CCDC71L (coiled-coil domain containing 71 like) | 1 | no change | no change | 0.2 | 0.24
ZNF416 (zinc finger protein 416) | 1 | no change | no change | 0.07 | 0.64
EHD3 (EH domain containing 3) | 1 | no change | no change | 0.43 | -0.61
MTNR1A (melatonin receptor 1A) | 1 | no change | no change | 0.22 | -0.76
CYP4A22 (cytochrome P450 family 4 subfamily A member 22) | 1 | no change | no change | -1.01 | 1.22
SPATA31A1 (SPATA31 subfamily A member 1) | 1 | no change | no change | -0.38 | 0.64
SPATA31A1 (SPATA31 subfamily A member 1) | 2 | no change | no change | -1.47 | -0.12

A run of entries of the results above:
target | reagent | viability hit class | caspase hit class | viability robust z-score | caspase robust z-score
GATAD1 (GATA zinc finger domain containing 1) | 1 | no change | no change | -1.57 | 2.02
CIB2 (calcium and integrin binding family member 2) | 1 | no change | no change | -0.84 | -0.36
CABP5 (calcium binding protein 5) | 1 | no change (active) | CA2 (caspase activation) | -2.38 | 6.07
MESP2 (mesoderm posterior bHLH transcription factor 2) | 1 | no change | no change | -1.22 | 1
